In paper PMC4299599, “Quantification of cytosolic interactions identifies Ede1 oligomers as key organizers of endocytosis” (Molecular Systems Biology, 2014):
No constants are given. Whether binding was seen depends on the method and setting. Each block holds one binder with its values, some of them ahead of it.

Experiments:
Ede1 (S. cerevisiae) = biological target: T1, Ede1 (S. cerevisiae) (UniProt P34216); test: condition: 1000 nM (only Kdeff-values < 1000 nM are shown); fluorescence cross-correlation spectroscopy (FCCS); in the cytoplasm of living yeast cells; first-named protein green (3myeGFP or 1myeGFP; eGFP for Don1), second red (3mCherry); self-interaction in diploid strains with one allele of each colour; apparent or effective KD (Kdeff) from single-cell measurements; only Kdeff values < 1000 nM are shown; values for self-interactions are upper limits
T1 sequence: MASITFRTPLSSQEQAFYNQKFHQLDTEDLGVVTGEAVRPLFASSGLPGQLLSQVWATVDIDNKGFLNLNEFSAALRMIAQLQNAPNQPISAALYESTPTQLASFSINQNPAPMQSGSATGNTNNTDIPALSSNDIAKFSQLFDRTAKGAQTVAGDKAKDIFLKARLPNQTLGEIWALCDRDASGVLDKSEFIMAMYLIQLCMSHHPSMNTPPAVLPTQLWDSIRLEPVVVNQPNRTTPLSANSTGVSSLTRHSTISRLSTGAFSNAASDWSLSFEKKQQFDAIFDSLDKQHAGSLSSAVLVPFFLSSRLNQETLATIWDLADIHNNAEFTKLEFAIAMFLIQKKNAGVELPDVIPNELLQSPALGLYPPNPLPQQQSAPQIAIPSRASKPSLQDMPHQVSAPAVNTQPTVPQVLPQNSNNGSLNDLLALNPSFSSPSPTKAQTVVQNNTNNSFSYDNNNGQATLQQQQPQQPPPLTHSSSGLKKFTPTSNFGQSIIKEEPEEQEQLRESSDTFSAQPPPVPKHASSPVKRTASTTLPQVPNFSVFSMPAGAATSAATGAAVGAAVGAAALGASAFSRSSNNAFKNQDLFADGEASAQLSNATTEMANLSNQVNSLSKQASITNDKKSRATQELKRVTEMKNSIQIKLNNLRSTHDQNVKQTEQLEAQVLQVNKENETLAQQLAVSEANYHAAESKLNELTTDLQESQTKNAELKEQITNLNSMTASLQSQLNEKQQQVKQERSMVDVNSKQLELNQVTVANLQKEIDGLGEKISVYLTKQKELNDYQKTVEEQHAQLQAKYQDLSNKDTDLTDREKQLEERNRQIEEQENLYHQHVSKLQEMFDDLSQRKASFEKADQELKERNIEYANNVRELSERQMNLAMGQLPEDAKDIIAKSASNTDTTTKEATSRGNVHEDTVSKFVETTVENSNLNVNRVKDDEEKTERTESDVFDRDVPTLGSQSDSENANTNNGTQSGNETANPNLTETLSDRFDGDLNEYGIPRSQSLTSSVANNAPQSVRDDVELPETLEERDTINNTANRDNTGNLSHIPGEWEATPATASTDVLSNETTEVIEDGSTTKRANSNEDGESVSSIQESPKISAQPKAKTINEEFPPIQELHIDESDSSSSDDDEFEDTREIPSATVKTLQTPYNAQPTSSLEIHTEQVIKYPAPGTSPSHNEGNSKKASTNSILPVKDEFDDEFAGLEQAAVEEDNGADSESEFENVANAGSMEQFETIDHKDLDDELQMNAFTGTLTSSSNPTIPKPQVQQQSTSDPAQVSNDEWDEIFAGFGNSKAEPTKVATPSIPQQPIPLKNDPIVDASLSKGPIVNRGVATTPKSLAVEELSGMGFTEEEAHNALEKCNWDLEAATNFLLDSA

[1] = biological target: T2, Sla1 (S. cerevisiae), P32790; test: condition: 1000 nM (only Kdeff-values < 1000 nM are shown); fluorescence cross-correlation spectroscopy (FCCS); in the cytoplasm of living yeast cells; first-named protein green (3myeGFP or 1myeGFP; eGFP for Don1), second red (3mCherry); self-interaction in diploid strains with one allele of each colour; apparent or effective KD (Kdeff) from single-cell measurements; only Kdeff values < 1000 nM are shown; values for …; conditions: remark: other sources report otherwise
T2 chain: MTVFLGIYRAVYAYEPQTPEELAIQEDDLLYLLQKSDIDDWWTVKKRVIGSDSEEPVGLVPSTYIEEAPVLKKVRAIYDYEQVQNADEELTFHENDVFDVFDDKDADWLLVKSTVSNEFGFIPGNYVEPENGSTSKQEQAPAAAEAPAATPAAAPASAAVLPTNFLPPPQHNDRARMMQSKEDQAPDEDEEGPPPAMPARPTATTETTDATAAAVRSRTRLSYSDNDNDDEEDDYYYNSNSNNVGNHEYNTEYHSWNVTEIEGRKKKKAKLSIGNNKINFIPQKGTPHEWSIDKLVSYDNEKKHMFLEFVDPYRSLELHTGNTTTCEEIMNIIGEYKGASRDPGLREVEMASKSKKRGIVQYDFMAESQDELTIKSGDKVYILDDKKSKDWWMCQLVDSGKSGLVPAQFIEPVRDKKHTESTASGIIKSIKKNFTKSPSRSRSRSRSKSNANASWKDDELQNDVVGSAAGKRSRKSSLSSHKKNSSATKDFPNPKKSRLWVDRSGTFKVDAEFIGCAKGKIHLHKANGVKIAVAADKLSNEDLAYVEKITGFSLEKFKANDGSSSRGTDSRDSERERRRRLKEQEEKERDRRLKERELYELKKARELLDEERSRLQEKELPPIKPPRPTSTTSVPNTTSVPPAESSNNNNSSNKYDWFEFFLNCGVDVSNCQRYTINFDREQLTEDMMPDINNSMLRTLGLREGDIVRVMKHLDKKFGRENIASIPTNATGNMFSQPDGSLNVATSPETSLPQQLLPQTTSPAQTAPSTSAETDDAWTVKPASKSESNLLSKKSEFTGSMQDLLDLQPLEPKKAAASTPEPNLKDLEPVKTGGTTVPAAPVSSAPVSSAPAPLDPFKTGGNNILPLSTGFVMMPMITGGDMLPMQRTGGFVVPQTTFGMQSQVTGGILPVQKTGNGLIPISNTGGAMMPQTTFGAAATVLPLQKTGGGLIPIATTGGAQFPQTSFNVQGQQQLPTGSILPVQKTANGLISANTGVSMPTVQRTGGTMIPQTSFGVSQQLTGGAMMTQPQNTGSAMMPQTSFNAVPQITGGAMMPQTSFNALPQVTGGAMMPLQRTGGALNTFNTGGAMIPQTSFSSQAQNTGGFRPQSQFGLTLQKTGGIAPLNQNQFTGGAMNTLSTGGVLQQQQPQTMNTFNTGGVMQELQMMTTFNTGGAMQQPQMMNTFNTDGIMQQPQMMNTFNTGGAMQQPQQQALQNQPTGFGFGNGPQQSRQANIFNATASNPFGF

binding (Ede1 (S. cerevisiae)): no binding
B1: Yap1801 (protein, UniProt P38856 1-637)
chain: MTTYFKLVKGATKIKSAPPKQKYLDPILLGTSNEEDFYEIVKGLDSRINDTAWTIVYKSLLVVHLMIREGSKDVALRYYSRNLEFFDIENIRGSNGSASGDMRALDRYDNYLKVRCREFGKIKKDYVRDGYRTLKLNSGNYGSSRNKQHSINIALDHVESLEVQIQALIKNKYTQYDLSNELIIFGFKLLIQDLLALYNALNEGIITLLESFFELSHHNAERTLDLYKTFVDLTEHVVRYLKSGKTAGLKIPVIKHITTKLVRSLEEHLIEDDKTHNTFVPVDSSQGSAGAVVAKSTAQERLEQIREQKRILEAQLKNEQVAISPALTTVTAAQSYNPFGTDSSMHTNIPMAVANQTQQIANNPFVSQTQPQVMNTPTAHTEPANLNVPEYAAVQHTVNFNPVQDAGVSAQQTGYYSINNHLTPTFTGAGFGGYSVSQDTTAASNQQVSHSQTGSNNPFALHNAATIATGNPAHENVLNNPFSRPNFDEQNTNMPLQQQIISNPFQNQTYNQQQFQQQKMPLSSINSVMTTPTSMQGSMNIPQRFDKMEFQAHYTQNHLQQQQQQQQQQQQQQQQQPQQGYYVPATAGANPVTNITGTVQPQNFPFYPQQQPQPEQSQTQQPVLGNQYANNLNLIDM

binding [1]: no binding
B2: Sla2, P33338 1-968 (protein)
chain: MSRIDSDLQKALKKACSVEETAPKRKHVRACIVYTWDHQSSKAVFTTLKTLPLANDEVQLFKMLIVLHKIIQEGHPSALAEAIRDRDWIRSLGRVHSGGSSYSKLIREYVRYLVLKLDFHAHHRGFNNGTFEYEEYVSLVSVSDPDEGYETILDLMSLQDSLDEFSQIIFASIQSERRNTECKISALIPLIAESYGIYKFITSMLRAMHRQLNDAEGDAALQPLKERYELQHARLFEFYADCSSVKYLTTLVTIPKLPVDAPDVFLINDVDESKEIKFKKREPSVTPARTPARTPTPTPPVVAEPAISPRPVSQRTTSTPTGYLQTMPTGATTGMMIPTATGAANAIFPQATAQMQPDFWANQQAQFANEQNRLEQERVQQLQQQQAQQELFQQQLQKAQQDMMNMQLQQQNQHQNDLIALTNQYEKDQALLQQYDQRVQQLESEITTMDSTASKQLANKDEQLTALQDQLDVWERKYESLAKLYSQLRQEHLNLLPRFKKLQLKVNSAQESIQKKEQLEHKLKQKDLQMAELVKDRDRARLELERSINNAEADSAAATAAAETMTQDKMNPILDAILESGINTIQESVYNLDSPLSWSGPLTPPTFLLSLLESTSENATEFATSFNNLIVDGLAHGDQTEVIHCVSDFSTSMATLVTNSKAYAVTTLPQEQSDQILTLVKRCAREAQYFFEDLMSENLNQVGDEEKTDIVINANVDMQEKLQELSLAIEPLLNIQSVKSNKETNPHSELVATADKIVKSSEHLRVDVPKPLLSLALMIIDAVVALVKAAIQCQNEIATTTSIPLNQFYLKNSRWTEGLISAAKAVAGATNVLITTASKLITSEDNENTSPEQFIVASKEVAASTIQLVAASRVKTSIHSKAQDKLEHCSKDVTDACRSLGNHVMGMIEDDHSTSQQQQPLDFTSEHTLKTAEMEQQVEILKLEQSLSNARKRLGEIRRHAYYNQDDD

binding (Ede1 (S. cerevisiae)): no binding
B3: Ent1 (protein, UniProt Q12518 1-454)
chain: MSKQFVRSAKNLVKGYSSTQVLVRNATSNDNHQVSKDSLIELAEKSYDSADFFEIMDMLDKRLNDKGKYWRHIAKALTVIDYLIRFGSENCVLWCRENLYIIKTLKEFRHEDDEGIDQGQIVRVKAKELTALLSDDERLNEERNMNIKGRNRKGRRRRGTGRSDENDDDLQRAISASRLTAEEDERRRKQDEDYETALQLSKEEEELKRLQDLQRMQQQQGQQQLQQPMYYDIFGNPITPEEYAQFQLQQQQQQQQQQLQQQPMYYDVFGNPITPEELAQFQQQQQLQEQQYLASMQQQQQAMSNNPFAKSEQSSSSPKRNQLVAASSPQQLQQQKQQEPLIQNRTGNQSMTDKYSKLNELLATGTGIDTFGNVGEARIPAQHTKTGTFINSQGTGYRQVSDDPNHNPFLNSQYTGLPSTSVVPTQTGYGFGNQSQQQSQNNGSNNRGYTLIDL
